Measurements reported in PubChem BioAssay AID652243 (Drosophila RNAi Screening Center, 2013)

- Screen: 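Knock-downs that decrease or increase androgen receptor reporter signal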 (primary screen)
- Cells: Drosophila S2R+ cells
- Knock-down reagent: long dsRNA against Drosophila genes
- Timing: 72 h (48 h, then 24 h hormone)
- Conditions: synthetic androgen R1881 at 10 nM for 24 h
- Detection: 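Per-well raw luminescence of the androgen-driven firefly reporter and of the Renilla control, two replicates each, without normalisation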
- Scale: firefly reporter light: higher = more light from androgen-responsive reporter; Renilla control light: higher = more constitutive control signal (cell number, transfection)
- Rule for the call: 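Across duplicate plates, a knock-down whose log firefly/Renilla ratio shifted a set fold down or up from the GFP/LacZ control mean was a hit; the downward cut appears as both 1.5 and 3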
- Calls: active = hit: reporter lowered or raised; inactive = no hit
In all, the deposit lists about 24,000 reagents; this is an unselected part of those that have a named target and a result. In the full data, 246 (1%) were called active. 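Plates not normalised; calls are printed but the firefly/Renilla ratio behind them is not deposited; fold cut for lowering reported inconsistently.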 Raw values are not corrected between plates. Not stated in the record: the amount of reagent.

| predicted target | dsRNA | firefly reporter light, replicate 1 | firefly reporter light, replicate 2 | Renilla control light, replicate 1 | Renilla control light, replicate 2 | Outcome |
| --- | --- | --- | --- | --- | --- | --- |
| CG8568 | DRSC20113 | 78733 | 1.36e5 | 4.64e5 | 7.26e5 | inactive |
| CG8568 | DRSC26687 | 4.08e5 | 4.07e5 | 6.31e5 | 5.40e5 | inactive |
| ci (cubitus interruptus) | DRSC17172 | 1.64e5 | 1.65e5 | 1.67e6 | 1.83e6 | inactive |
| vri (vrille) | DRSC23174 | 7.11e5 | 9.71e5 | 9.53e5 | 1.39e6 | inactive |
| vri (vrille) | DRSC26054 | 2.98e5 | 2.91e5 | 7.56e5 | 6.37e5 | inactive |
| CG42795 | DRSC12772 | 1.58e5 | 1.60e5 | 2.26e5 | 2.51e5 | inactive |
| CG42795 | DRSC15533 | 1.06e5 | 1.56e5 | 2.17e6 | 2.29e6 | inactive |
| CG42795 | DRSC24766 | 8.47e5 | 6.73e5 | 1.02e6 | 1.06e6 | inactive |
| CG8036 | DRSC16366 | 1.20e5 | 82430 | 1.62e6 | 1.58e6 | inactive |

No new results follow: 4 of the entries above.
| predicted target | dsRNA | firefly reporter light, replicate 1 | firefly reporter light, replicate 2 | Renilla control light, replicate 1 | Renilla control light, replicate 2 | Outcome |
| --- | --- | --- | --- | --- | --- | --- |
| vri (vrille) | DRSC23174 | 7.11e5 | 9.71e5 | 9.53e5 | 1.39e6 | inactive |
| vri (vrille) | DRSC26054 | 2.98e5 | 2.91e5 | 7.56e5 | 6.37e5 | inactive |
| CG42795 | DRSC12772 | 1.58e5 | 1.60e5 | 2.26e5 | 2.51e5 | inactive |
| CG42795 | DRSC15533 | 1.06e5 | 1.56e5 | 2.17e6 | 2.29e6 | inactive |

The results go on:
| predicted target | dsRNA | firefly reporter light, replicate 1 | firefly reporter light, replicate 2 | Renilla control light, replicate 1 | Renilla control light, replicate 2 | Outcome |
| --- | --- | --- | --- | --- | --- | --- |
| CG6230 | DRSC01989 | 7.06e5 | 9.39e5 | 1.80e6 | 2.30e6 | inactive |
| Sec16 (Secretory 16) | DRSC19788 | 7.82e5 | 3.98e5 | 3.20e6 | 2.93e6 | inactive |
| CG30412 | DRSC04564 | 6.92e5 | 6.41e5 | 3.64e6 | 2.75e6 | inactive |
| CG30412 | DRSC25522 | 9.36e5 | 6.84e5 | 6.06e5 | 6.97e5 | inactive |
| UQCR-14 (Ubiquinol-cytochrome c reductase 14 kDa subunit) | DRSC19870 | 6.09e5 | 6.26e5 | 3.99e6 | 3.25e6 | inactive |
| UQCR-14 (Ubiquinol-cytochrome c reductase 14 kDa subunit) | DRSC25269 | 6.84e5 | 7.58e5 | 1.16e6 | 1.33e6 | inactive |
| CG32718 | DRSC17538 | 8.83e5 | 7.67e5 | 1.62e6 | 1.16e6 | inactive |
| CG11857 | DRSC14411 | 2.44e5 | 3.09e5 | 1.84e6 | 1.80e6 | inactive |
| Fib (Fibrillarin) | DRSC04614 | 1.91e5 | 3.30e5 | 1.63e6 | 2.20e6 | inactive |
| mub (mushroom-body expressed) | DRSC11896 | 32686 | 29352 | 3.93e5 | 3.26e5 | inactive |
| mub (mushroom-body expressed) | DRSC29738 | 5.62e5 | 4.30e5 | 1.05e6 | 9.86e5 | inactive |
| CG33467 | DRSC05525 | 1.20e5 | 1.83e5 | 5.69e5 | 7.50e5 | inactive |
| CG33467 | DRSC22651 | 6.18e5 | 6.36e5 | 1.08e6 | 1.28e6 | inactive |
| nAChRalpha1 (nicotinic Acetylcholine Receptor alpha1) | DRSC13664 | 4548 | 11376 | 23591 | 33471 | inactive |
| nAChRalpha1 (nicotinic Acetylcholine Receptor alpha1) | DRSC13670 | 18958 | 12763 | 1.05e5 | 1.35e5 | active |
| nAChRalpha1 (nicotinic Acetylcholine Receptor alpha1) | DRSC13672 | 1.18e5 | 58979 | 1.50e5 | 1.24e5 | inactive |
| nAChRalpha1 (nicotinic Acetylcholine Receptor alpha1) | DRSC17008 | 1.86e5 | 2.58e5 | 3.07e6 | 2.94e6 | inactive |
